Results: article PMC11131313
No constants are given. Whether binding was seen depends on the method and setting. Binding seen in cells or lysates may run through a third protein. Some entries that bind do so weakly or less than the wild type. One block for each molecule: values may come before it.

The chains behind the UniProt entries cited, without tags or fusion partners.
UniProt P32929: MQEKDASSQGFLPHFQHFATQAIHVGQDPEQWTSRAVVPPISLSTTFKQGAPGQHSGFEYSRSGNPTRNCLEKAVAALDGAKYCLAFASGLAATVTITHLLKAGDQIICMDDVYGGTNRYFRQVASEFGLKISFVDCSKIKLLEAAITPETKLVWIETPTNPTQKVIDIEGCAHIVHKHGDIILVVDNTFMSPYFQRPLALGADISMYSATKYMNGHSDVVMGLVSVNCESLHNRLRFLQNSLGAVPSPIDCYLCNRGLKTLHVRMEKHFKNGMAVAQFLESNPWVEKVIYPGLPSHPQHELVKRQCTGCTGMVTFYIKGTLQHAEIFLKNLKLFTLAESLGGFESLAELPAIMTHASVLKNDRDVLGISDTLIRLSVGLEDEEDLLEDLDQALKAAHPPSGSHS
UniProt Q9NS91: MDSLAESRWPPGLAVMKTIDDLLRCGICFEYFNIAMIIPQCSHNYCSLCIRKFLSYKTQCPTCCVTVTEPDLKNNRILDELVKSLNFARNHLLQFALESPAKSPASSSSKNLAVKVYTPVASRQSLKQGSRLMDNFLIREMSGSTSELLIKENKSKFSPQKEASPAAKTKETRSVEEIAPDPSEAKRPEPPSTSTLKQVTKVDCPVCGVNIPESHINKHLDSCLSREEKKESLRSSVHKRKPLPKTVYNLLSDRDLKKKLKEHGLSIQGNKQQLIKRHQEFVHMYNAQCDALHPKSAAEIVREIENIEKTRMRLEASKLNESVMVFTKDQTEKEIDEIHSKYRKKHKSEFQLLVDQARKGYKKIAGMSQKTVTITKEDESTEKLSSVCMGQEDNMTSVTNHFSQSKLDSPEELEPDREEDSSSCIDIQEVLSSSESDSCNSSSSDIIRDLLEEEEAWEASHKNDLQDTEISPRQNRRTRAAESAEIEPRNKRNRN
UniProt Q93008: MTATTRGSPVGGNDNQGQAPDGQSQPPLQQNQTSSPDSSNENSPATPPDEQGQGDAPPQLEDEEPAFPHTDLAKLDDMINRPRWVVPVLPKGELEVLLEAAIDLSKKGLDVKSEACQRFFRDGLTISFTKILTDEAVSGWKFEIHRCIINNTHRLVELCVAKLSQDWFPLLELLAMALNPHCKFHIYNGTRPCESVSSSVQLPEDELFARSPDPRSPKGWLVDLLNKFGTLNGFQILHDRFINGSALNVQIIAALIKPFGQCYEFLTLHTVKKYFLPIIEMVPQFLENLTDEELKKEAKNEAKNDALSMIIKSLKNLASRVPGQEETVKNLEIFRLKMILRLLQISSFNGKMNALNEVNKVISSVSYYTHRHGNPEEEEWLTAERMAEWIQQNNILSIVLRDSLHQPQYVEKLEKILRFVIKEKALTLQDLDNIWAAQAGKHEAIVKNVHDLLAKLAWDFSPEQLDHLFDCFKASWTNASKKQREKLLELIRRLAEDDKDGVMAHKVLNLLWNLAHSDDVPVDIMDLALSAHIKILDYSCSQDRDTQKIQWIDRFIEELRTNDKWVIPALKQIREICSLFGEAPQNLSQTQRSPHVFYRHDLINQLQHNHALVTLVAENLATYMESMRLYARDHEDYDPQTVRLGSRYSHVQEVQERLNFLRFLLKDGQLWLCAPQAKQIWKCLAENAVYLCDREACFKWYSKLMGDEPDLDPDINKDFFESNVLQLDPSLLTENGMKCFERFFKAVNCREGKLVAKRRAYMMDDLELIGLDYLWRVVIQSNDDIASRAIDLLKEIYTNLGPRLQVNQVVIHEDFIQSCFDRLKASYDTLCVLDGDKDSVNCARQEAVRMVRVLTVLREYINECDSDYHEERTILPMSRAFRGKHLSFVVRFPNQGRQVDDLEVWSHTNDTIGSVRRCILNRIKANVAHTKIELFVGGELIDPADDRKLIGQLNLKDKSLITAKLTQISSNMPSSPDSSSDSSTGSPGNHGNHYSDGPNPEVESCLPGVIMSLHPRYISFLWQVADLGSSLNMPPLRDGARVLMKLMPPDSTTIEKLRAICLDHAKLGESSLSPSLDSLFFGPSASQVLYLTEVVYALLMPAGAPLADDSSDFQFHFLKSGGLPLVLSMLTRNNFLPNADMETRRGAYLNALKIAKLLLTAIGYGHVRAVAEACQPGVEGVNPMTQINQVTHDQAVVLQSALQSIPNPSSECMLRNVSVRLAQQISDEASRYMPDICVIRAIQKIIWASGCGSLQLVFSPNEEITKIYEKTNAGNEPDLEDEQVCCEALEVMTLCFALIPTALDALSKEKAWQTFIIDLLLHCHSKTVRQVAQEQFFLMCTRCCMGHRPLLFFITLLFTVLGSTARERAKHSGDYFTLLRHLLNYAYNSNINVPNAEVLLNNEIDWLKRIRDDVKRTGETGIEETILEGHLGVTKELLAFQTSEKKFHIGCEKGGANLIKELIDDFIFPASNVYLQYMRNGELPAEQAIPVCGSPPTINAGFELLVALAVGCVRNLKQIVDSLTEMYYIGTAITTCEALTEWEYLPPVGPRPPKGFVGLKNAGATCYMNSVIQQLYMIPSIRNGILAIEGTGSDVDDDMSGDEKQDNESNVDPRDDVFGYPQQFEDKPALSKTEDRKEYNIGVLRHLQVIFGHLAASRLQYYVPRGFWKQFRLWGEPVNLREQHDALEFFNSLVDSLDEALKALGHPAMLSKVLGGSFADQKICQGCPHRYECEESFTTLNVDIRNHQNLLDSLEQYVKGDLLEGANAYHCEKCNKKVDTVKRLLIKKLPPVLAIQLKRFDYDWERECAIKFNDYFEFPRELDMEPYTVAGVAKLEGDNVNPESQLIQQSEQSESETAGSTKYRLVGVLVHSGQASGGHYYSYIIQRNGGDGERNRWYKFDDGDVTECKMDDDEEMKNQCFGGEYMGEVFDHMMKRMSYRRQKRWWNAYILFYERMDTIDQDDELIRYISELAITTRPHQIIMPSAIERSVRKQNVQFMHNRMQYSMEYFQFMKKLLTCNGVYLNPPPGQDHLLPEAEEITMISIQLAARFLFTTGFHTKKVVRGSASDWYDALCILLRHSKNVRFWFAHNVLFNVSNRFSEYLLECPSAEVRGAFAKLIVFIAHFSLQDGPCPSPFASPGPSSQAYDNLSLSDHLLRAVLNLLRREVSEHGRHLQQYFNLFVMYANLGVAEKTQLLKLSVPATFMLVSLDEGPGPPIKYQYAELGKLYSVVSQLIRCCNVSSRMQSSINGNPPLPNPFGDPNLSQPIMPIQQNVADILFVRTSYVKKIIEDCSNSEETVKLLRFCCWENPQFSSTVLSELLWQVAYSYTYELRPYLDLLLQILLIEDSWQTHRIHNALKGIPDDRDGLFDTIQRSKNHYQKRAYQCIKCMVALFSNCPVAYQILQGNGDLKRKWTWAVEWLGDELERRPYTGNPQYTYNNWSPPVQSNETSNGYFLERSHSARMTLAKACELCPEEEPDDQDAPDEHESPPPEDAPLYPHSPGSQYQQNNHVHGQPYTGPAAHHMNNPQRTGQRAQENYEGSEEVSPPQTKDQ

Columns and labels:
[1] = biological target: cystathionine γ-lyase (CTH) (human (endogenous in A549 and H1299)) (UniProt P32929); test: co-IP; endogenous proteins in A549 and H1299 lysates; antibody 1 h at low temperature, A/G beads overnight, 5 washes with NETN buffer, Western blotting
GST-CTH fusion protein = GST-CTH fusion protein (UniProt P32929); test: pull-down; GST-CTH plus GST beads incubated with lysate of HEK293T cells transfected with Flag-Rad18 (in Fig. 4L with the corresponding plasmids, REV1 overexpression), 4 °C overnight, 5 washes with NETN buffer, Western blotting
[2] = biological target: T1, REV1 DNA directed polymerase (REV1) (human (endogenous in A549 and H1299)) (UniProt Q9UBZ9); test: co-IP; endogenous REV1 co-IP, blotted for the targets of the four screened drugs; antibody 1 h at low temperature, A/G beads overnight, 5 washes with NETN buffer
T1 sequence: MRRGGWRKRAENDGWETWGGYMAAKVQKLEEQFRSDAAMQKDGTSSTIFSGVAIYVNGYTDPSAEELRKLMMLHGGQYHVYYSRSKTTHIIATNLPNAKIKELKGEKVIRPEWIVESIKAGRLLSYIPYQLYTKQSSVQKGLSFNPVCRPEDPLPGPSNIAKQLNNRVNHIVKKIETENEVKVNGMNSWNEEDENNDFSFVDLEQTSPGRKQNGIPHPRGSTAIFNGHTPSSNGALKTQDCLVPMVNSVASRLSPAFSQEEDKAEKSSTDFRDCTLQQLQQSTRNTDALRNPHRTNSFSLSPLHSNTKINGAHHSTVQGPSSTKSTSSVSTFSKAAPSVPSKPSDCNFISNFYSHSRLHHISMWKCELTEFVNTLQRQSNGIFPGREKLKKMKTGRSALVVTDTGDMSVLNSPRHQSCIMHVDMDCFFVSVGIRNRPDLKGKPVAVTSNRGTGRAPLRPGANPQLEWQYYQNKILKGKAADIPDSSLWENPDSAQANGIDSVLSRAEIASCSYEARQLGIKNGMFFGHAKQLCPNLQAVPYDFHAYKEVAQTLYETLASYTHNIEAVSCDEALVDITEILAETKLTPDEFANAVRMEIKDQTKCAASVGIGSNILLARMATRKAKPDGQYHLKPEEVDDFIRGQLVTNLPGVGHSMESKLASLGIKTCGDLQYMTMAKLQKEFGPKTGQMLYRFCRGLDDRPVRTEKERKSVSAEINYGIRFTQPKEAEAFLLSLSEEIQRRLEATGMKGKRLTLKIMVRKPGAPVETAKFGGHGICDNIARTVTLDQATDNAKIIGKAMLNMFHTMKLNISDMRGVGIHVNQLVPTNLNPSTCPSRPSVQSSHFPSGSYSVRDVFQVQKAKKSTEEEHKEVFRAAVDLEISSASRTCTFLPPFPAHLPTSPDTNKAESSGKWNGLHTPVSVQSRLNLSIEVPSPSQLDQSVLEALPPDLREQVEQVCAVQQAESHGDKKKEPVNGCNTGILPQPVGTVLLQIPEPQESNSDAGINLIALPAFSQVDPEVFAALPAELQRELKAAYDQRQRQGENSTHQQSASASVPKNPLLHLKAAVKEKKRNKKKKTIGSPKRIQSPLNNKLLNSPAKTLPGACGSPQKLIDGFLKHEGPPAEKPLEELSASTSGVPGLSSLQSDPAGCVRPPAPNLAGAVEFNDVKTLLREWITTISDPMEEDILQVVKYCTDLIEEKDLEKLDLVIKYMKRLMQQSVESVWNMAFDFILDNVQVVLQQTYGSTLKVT

SFB-REV1 = biological target: T2, SFB-REV1 (UniProt Q9UBZ9); test: co-IP; A549 cells transfected with SFB-REV1 for 24 h; supernatants incubated with S beads overnight at 4 °C, 5 washes with NETN buffer, Western blotting for endogenous USP9X
T2 sequence: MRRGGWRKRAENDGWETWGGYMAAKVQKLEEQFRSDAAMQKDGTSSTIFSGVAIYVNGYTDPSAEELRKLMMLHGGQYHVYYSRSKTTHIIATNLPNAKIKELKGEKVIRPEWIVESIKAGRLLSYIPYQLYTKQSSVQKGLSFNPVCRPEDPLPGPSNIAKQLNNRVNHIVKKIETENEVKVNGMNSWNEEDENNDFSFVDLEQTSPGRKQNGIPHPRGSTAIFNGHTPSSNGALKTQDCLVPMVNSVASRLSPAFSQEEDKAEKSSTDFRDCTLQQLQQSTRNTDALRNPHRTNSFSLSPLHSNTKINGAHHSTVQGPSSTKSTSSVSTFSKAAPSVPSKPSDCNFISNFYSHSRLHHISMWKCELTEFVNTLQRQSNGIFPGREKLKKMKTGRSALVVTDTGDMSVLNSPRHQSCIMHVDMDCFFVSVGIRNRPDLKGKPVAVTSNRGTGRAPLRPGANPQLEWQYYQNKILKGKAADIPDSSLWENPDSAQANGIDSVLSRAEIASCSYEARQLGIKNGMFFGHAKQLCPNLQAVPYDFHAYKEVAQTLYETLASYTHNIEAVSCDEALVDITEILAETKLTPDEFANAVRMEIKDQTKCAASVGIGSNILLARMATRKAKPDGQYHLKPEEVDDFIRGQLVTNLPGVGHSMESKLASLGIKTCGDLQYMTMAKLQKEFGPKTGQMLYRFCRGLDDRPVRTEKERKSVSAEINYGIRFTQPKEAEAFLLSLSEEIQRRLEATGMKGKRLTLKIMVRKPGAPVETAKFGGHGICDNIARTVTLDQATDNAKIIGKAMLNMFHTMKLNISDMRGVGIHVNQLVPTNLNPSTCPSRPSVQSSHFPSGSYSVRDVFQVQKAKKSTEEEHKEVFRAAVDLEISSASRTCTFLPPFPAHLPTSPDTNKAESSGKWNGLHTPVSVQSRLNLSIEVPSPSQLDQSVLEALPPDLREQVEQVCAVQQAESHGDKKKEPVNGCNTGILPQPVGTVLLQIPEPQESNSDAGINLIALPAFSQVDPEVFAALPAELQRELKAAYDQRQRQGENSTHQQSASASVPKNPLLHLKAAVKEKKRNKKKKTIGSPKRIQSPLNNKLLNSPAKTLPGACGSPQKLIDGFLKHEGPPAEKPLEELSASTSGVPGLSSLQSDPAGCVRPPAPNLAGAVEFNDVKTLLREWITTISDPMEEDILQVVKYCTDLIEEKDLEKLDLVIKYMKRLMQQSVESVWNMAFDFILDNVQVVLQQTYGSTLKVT

Molecule: Flag-Rad18 (from UniProt Q9NS91 1-495) (enzyme)
binding (GST-CTH fusion protein): binds

B1: REV1 DNA directed polymerase (REV1) (protein, UniProt Q9UBZ9 1-1251)
chain: MRRGGWRKRAENDGWETWGGYMAAKVQKLEEQFRSDAAMQKDGTSSTIFSGVAIYVNGYTDPSAEELRKLMMLHGGQYHVYYSRSKTTHIIATNLPNAKIKELKGEKVIRPEWIVESIKAGRLLSYIPYQLYTKQSSVQKGLSFNPVCRPEDPLPGPSNIAKQLNNRVNHIVKKIETENEVKVNGMNSWNEEDENNDFSFVDLEQTSPGRKQNGIPHPRGSTAIFNGHTPSSNGALKTQDCLVPMVNSVASRLSPAFSQEEDKAEKSSTDFRDCTLQQLQQSTRNTDALRNPHRTNSFSLSPLHSNTKINGAHHSTVQGPSSTKSTSSVSTFSKAAPSVPSKPSDCNFISNFYSHSRLHHISMWKCELTEFVNTLQRQSNGIFPGREKLKKMKTGRSALVVTDTGDMSVLNSPRHQSCIMHVDMDCFFVSVGIRNRPDLKGKPVAVTSNRGTGRAPLRPGANPQLEWQYYQNKILKGKAADIPDSSLWENPDSAQANGIDSVLSRAEIASCSYEARQLGIKNGMFFGHAKQLCPNLQAVPYDFHAYKEVAQTLYETLASYTHNIEAVSCDEALVDITEILAETKLTPDEFANAVRMEIKDQTKCAASVGIGSNILLARMATRKAKPDGQYHLKPEEVDDFIRGQLVTNLPGVGHSMESKLASLGIKTCGDLQYMTMAKLQKEFGPKTGQMLYRFCRGLDDRPVRTEKERKSVSAEINYGIRFTQPKEAEAFLLSLSEEIQRRLEATGMKGKRLTLKIMVRKPGAPVETAKFGGHGICDNIARTVTLDQATDNAKIIGKAMLNMFHTMKLNISDMRGVGIHVNQLVPTNLNPSTCPSRPSVQSSHFPSGSYSVRDVFQVQKAKKSTEEEHKEVFRAAVDLEISSASRTCTFLPPFPAHLPTSPDTNKAESSGKWNGLHTPVSVQSRLNLSIEVPSPSQLDQSVLEALPPDLREQVEQVCAVQQAESHGDKKKEPVNGCNTGILPQPVGTVLLQIPEPQESNSDAGINLIALPAFSQVDPEVFAALPAELQRELKAAYDQRQRQGENSTHQQSASASVPKNPLLHLKAAVKEKKRNKKKKTIGSPKRIQSPLNNKLLNSPAKTLPGACGSPQKLIDGFLKHEGPPAEKPLEELSASTSGVPGLSSLQSDPAGCVRPPAPNLAGAVEFNDVKTLLREWITTISDPMEEDILQVVKYCTDLIEEKDLEKLDLVIKYMKRLMQQSVESVWNMAFDFILDNVQVVLQQTYGSTLKVT
binding [1]: binds

The remaining lines, values ahead:

binding [1]: binds
Molecule: E3 ubiquitin ligase Rad18 (from UniProt Q9NS91 1-495) (enzyme)

binding [2]: binds
binding (SFB-REV1): binds
Molecule: ubiquitin-specific peptidase 9 X-linked (USP9X) (from UniProt Q93008 1-2554) (enzyme)
